{"source": "PubChem BioAssay AID445", "about": "(National Center for Advancing Translational Sciences (NCATS), 2006)", "experiment": "IkB Signaling", "conditions": "ABC-DLBCL IkBa-CBG/CBR dual luciferase ratio (green luciferase fused to IkBa over red control in OCI-Ly3 lymphoma cells), 4 h", "summary_of_the_method": "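Luminescence ratio of IκBα-fused green versus native red beetle luciferase in OCI-Ly3 cells, 4 h post-doxycycline with compound; red signal alone, scaled from basal (0%) to zero light (-100%), flagged nonspecific or cytotoxic effects.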", "key": {"[1]": {"conditions": "measured here: control luc red channel unless noted"}}, "note": "The other results are listed elsewhere or left out. These are further read-outs of the screen, such as a control signal, another cell line or another target. No call is given for them. Most of these compounds were active or inconclusive in the main read-out, so they are no random draw. Potencies come from curve fits of mixed quality, noted in brackets."}
{"smiles": "COc1ccc(CN2CCc3c(c(=O)n4ncc(C(=O)N5CCN(c6ccccc6OC)CC5)c4n3C)C2)cc1", "values": [{"measurement": "AC50", "setting": "[1]", "value": "25.1 µM [falling, single point]"}]}
{"smiles": "CCc1ccc(-n2c(=O)c3c4c(sc3n(CC(=O)c3ccc(F)cc3)c2=O)CCC4)cc1", "values": [{"measurement": "AC50", "setting": "[1]", "value": "39.8 µM [falling, single point]"}]}
{"smiles": "COc1ccc(-c2ccc3c(N)c(C(=O)c4ccc(OC)c(OC)c4)sc3n2)cc1", "values": [{"measurement": "AC50", "setting": "[1]", "value": "39.8 µM [falling, single point]"}]}
{"smiles": "CN(CCC#N)C(=O)CSc1ncnc2sc(-c3ccccc3)cc12", "values": [{"measurement": "AC50", "setting": "[1]", "value": "31.6 µM [falling, single point]"}]}
{"smiles": "CN=Cc1sc2ccccc2c1O", "values": [{"measurement": "AC50", "setting": "[1]", "value": "12.6 µM [falling, partial curve]"}]}
{"smiles": "COc1ccc(Nc2ccc3c(c2)=NC2(CCCCC2)[N+]=3[O-])cc1", "values": [{"measurement": "AC50", "setting": "[1]", "value": "2 µM [falling, full curve]"}]}
{"smiles": "CCCc1cc(=O)[nH]c(SCC(=O)N2CCN(c3ccccc3)CC2)n1", "values": [{"measurement": "AC50", "setting": "[1]", "value": "31.6 µM [falling, single point]"}]}
{"smiles": "Cc1ccc(NC(=O)CSc2nnc3scc(-c4ccc(Cl)cc4)n23)cc1", "values": [{"measurement": "AC50", "setting": "[1]", "value": "12.6 µM [falling, partial curve, poor fit]"}]}
{"smiles": "CCN(CC)C(=O)Cn1c(=O)cc(C)c2c(C)nn(-c3cccc(Cl)c3C)c21", "values": [{"measurement": "AC50", "setting": "[1]", "value": "12.6 µM [falling, partial curve]"}]}
{"smiles": "COc1cccc(CNC(=O)C2CCC(CNS(=O)(=O)c3ccc4c(c3)CCCC(=O)N4)CC2)c1", "note": "(stereo not given)", "values": [{"measurement": "AC50", "setting": "[1]", "value": "39.8 µM [falling, single point]"}]}
{"smiles": "Cc1ccc(Nc2nc3nonc3nc2Nc2cccc(C(F)(F)F)c2)cc1Cl", "values": [{"measurement": "AC50", "setting": "[1]", "value": "0.126 µM [falling, full curve]"}]}
{"smiles": "COc1ccc(NC(=O)Cn2cc(S(=O)(=O)N3CCN(c4ccccc4F)CC3)c3ccccc3c2=O)cc1Cl", "values": [{"measurement": "AC50", "setting": "[1]", "value": "1.26 µM [falling, full curve, poor fit]"}]}
{"smiles": "CCn1c(SCC(=O)c2[nH]c(C)c(C(C)=O)c2C)nnc1-c1cccs1", "values": [{"measurement": "AC50", "setting": "[1]", "value": "39.8 µM [falling, partial curve]"}]}
{"smiles": "CNc1c(NC(=O)c2ccc(OC)c(OC)c2)c(=O)oc2ccccc12", "values": [{"measurement": "AC50", "setting": "[1]", "value": "3.16 µM [falling, full curve]"}]}
{"smiles": "Cc1n[nH]c(C)c1S(=O)(=O)N(CC(=O)Nc1ccc2c(c1)OCCO2)c1ccc(C(C)C)cc1", "values": [{"measurement": "AC50", "setting": "[1]", "value": "15.8 µM [falling, partial curve]"}]}
{"smiles": "Cc1ccc(NC(=O)C(Cc2c[nH]c3ccccc23)NC(=O)OC(C)(C)C)c(C)c1", "note": "(stereo not given)", "values": [{"measurement": "AC50", "setting": "[1]", "value": "12.6 µM [falling, partial curve]"}]}
{"smiles": "COC(=O)c1ccc(Cl)cc1NC(=O)N1CC2CCCN2c2ccccc21", "note": "(stereo not given)", "values": [{"measurement": "AC50", "setting": "[1]", "value": "10 µM [rising, partial curve]"}]}
{"smiles": "c1ccc(Cn2nnnc2C(c2cccs2)N2CCCCCC2)cc1", "note": "(stereo not given)", "values": [{"measurement": "AC50", "setting": "[1]", "value": "25.1 µM [falling, single point]"}]}
{"smiles": "O=c1cc(-c2ccccc2)[nH]n1-c1nc2ccccc2[nH]1", "values": [{"measurement": "AC50", "setting": "[1]", "value": "39.8 µM [falling, single point]"}]}
{"smiles": "COc1ccccc1-n1nnnc1S(=O)(=O)Cc1ccc(Cl)cc1", "values": [{"measurement": "AC50", "setting": "measured here: IkB-luc green channel", "value": "39.8 µM [falling, single point]"}, {"measurement": "AC50", "setting": "measured here: control luc red channel", "value": "3.16 µM [falling, partial curve]"}]}
{"smiles": "COc1ccccc1OCCn1c(NC(=O)c2ccccc2Cl)nc2ccccc21", "values": [{"measurement": "AC50", "setting": "[1]", "value": "7.94 µM [falling, partial curve]"}]}
{"smiles": "Cc1ccc(NC(=O)C(=O)NCC(c2cccnc2)N2CCN(Cc3ccccc3)CC2)cc1C", "note": "(stereo not given)", "values": [{"measurement": "AC50", "setting": "[1]", "value": "3.16 µM [falling, partial curve, poor fit]"}]}
{"smiles": "COCCNC(=O)CCC(=O)NNc1nc2ccccc2c2nc(C)nn12", "values": [{"measurement": "AC50", "setting": "[1]", "value": "0.631 µM [rising, full curve]"}]}
{"smiles": "CS(=O)(=O)N1CCc2cc(C(=O)N3CCN(c4cccc(Cl)c4)CC3)ccc21", "values": [{"measurement": "AC50", "setting": "[1]", "value": "25.1 µM [falling, single point]"}]}
{"smiles": "Cc1ccc(C)c(N2CCN(C(=O)c3cn(CC(C)C)c(=O)c4c3c3ccccc3n4C)CC2)c1", "values": [{"measurement": "AC50", "setting": "[1]", "value": "10 µM [falling, partial curve]"}]}
{"smiles": "Cc1ccc(NC(=O)C2(c3cccs3)CCOCC2)cc1Cl", "values": [{"measurement": "AC50", "setting": "[1]", "value": "0.158 µM [falling, full curve]"}]}
{"smiles": "CC(=O)N1CCCc2cc(S(=O)(=O)N3CCCC(C(=O)N4CCN(c5cccc(Cl)c5)CC4)C3)ccc21", "note": "(stereo not given)", "values": [{"measurement": "AC50", "setting": "[1]", "value": "10 µM [falling, partial curve, poor fit]"}]}
{"smiles": "CCOc1cc2sc(N3CCC(C(=O)Nc4ccc(CC)cc4)CC3)nc2cc1Br", "values": [{"measurement": "AC50", "setting": "[1]", "value": "0.316 µM [falling, full curve]"}]}
{"smiles": "CCOc1ccc(CNC(=O)c2cccc(NC(=O)N3CCSc4ncccc43)c2)cc1OC", "values": [{"measurement": "AC50", "setting": "[1]", "value": "12.6 µM [falling, partial curve]"}]}
{"smiles": "CCc1ccc(C(=O)c2cn(CC(=O)Nc3ccc(Cl)cc3)c3cc4c(cc3c2=O)OCO4)cc1", "values": [{"measurement": "AC50", "setting": "[1]", "value": "3.98 µM [falling, partial curve]"}]}
{"smiles": "Cc1ccc(C)c(CSc2nnc3[nH]c(=O)cc(C)n23)c1", "values": [{"measurement": "AC50", "setting": "[1]", "value": "0.2 µM [falling, full curve, poor fit]"}]}
{"smiles": "O=C(CSc1nnc(-c2cccs2)o1)OC1CCCCC1", "values": [{"measurement": "AC50", "setting": "[1]", "value": "5.01 µM [falling, partial curve] [measured here: IkB-luc green channel]"}]}
{"smiles": "CC(C)c1nn2c(=O)cc(COC(=O)c3cccc(NC(=O)COc4ccc(F)cc4)c3)nc2s1", "values": [{"measurement": "AC50", "setting": "[1]", "value": "0.316 µM [falling, full curve]"}]}
{"smiles": "COc1ccc(C)cc1NC(=O)c1noc2c1CSc1ccccc1-2", "values": [{"measurement": "AC50", "setting": "[1]", "value": "10 µM [falling, partial curve]"}]}
{"smiles": "C=C(C)CN(CC)c1nc(N)c(C#N)c(CC#N)c1C#N", "values": [{"measurement": "AC50", "setting": "[1]", "value": "25.1 µM [falling, partial curve]"}]}
{"smiles": "COc1ccc(C2C(C(=O)Nc3ccccc3)=C(C)Nc3c(C(=O)Nc4ccccc4)cnn32)cc1", "note": "(stereo not given)", "values": [{"measurement": "AC50", "setting": "[1]", "value": "10 µM [falling, partial curve]"}]}
{"smiles": "CCCCNC(=O)c1nn(C)c2c1CSc1ccccc1-2", "values": [{"measurement": "AC50", "setting": "[1]", "value": "12.6 µM [falling, partial curve]"}]}
{"smiles": "Cc1ccc(C(=O)c2cn(Cc3cccc(Cl)c3)c3nc(C)ccc3c2=O)cc1", "values": [{"measurement": "AC50", "setting": "[1]", "value": "20 µM [falling, partial curve, poor fit]"}]}
{"smiles": "Cn1cccc1Cc1nnc(SCC(=O)Nc2ccc3c(c2)OCCO3)n1-c1ccc(F)cc1", "values": [{"measurement": "AC50", "setting": "[1]", "value": "12.6 µM [falling, partial curve]"}]}
